Among the data in article PMC5692476, “Effects of Periplasmic Chaperones and Membrane Thickness on BamA-Catalyzed Outer-Membrane Protein Folding” (Journal of Molecular Biology, 2017) are binding values, retold here.

No constants are given. Whether binding was seen depends on the method and setting.

The target in the assay is T1, Skp (Escherichia coli) (UniProt P0AEU7).
T1 sequence: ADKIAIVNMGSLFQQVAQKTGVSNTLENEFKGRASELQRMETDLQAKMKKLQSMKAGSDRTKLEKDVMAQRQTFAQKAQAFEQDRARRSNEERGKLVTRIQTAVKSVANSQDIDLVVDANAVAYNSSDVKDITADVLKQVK
As to the kind of experiment: native MS; nano-ESI; proteins alone or pre-mixed 1:1; tOmpA diluted from 8 M urea into Skp or SurA (all 1 μM final, 0.2 M urea, 50 mM glycine–NaOH pH 9.5), 5 min at room temperature, then buffer exchange into 200 mM ammonium acetate pH 10; both purified.

B1: SurA (natural protein, Escherichia coli, UniProt P0ABZ6 21-428, looked up)
chain: APQVVDKVAAVVNNGVVLESDVDGLMQSVKLNAAQARQQLPDDATLRHQIMERLIMDQIILQMGQKMGVKISDEQLDQAIANIAKQNNMTLDQMRSRLAYDGLNYNTYRNQIRKEMIISEVRNNEVRRRITILPQEVESLAQQVGNQNDASTELNLSHILIPLPENPTSDQVNEAESQARAIVDQARNGADFGKLAIAHSADQQALNGGQMGWGRIQELPGIFAQALSTAKKGDIVGPIRSGVGFHILKVNDLRGESKNISVTEVHARHILLKPSPIMTDEQARVKLEQIAADIKSGKTTFAAAAKEFSQDPGSANQGGDLGWATPDIFDPAFRDALTRLNKGQMSAPVHSSFGWHLIELLDTRNVDKTDAAQKDRAYRMLMNRKFSEEAASWMQEQRASAYVKILSN
notes: SurA, periplasmic chaperone of Escherichia coli; Probably the mature protein without its signal peptide (surmised); also called Escherichia coli periplasmic chaperone SurA
B1: the binding result is “no binding (tested: 1 μM)”.
